# Source: paper PMC7835349 (Communications Biology, 2021)
# “And” between values parts separate entries of the source, which are not always exact repeats. Equal entries are not always repeated. This continues a long series; more values of the same kind are listed elsewhere.
# Test system: telemetered dogs
# Test: Conscious dog telemetry (QRS amplitude and other cardiovascular parameters, tolerability)
# [1] = 1.7 mg/kg 0.5h infusion, dog 247, 1.5 hours
# [2] = 1.7 mg/kg 0.5h infusion, dog 247, 2 hours
# [3] = 1.7 mg/kg 0.5h infusion, dog 247, 3 hours
# [4] = 1.7 mg/kg 0.5h infusion, dog 247, 4 hours
# [5] = 1.7 mg/kg 0.5h infusion, dog 247, -0.5 hours
# [6] = 1.7 mg/kg 0.5h infusion, dog 247, -0.75 hours
# [7] = 1.7 mg/kg 0.5h infusion, dog 247, -1 hours
# [8] = 1.7 mg/kg 0.5h infusion, dog 247, -[…]
# [9] = 1.7 mg/kg 0.5h infusion, dog 247, […]
# [10] = 1.7 mg/kg 0.5h infusion, dog 288, 0 hours
# [11] = 1.7 mg/kg 0.5h infusion, dog 288, 0.5 hours
# [12] = 1.7 mg/kg 0.5h infusion, dog 288, 1 hours
# [13] = 1.7 mg/kg 0.5h infusion, dog 288, 1.5 hours
# [14] = 1.7 mg/kg 0.5h infusion, dog 288, 2 hours
# [15] = 1.7 mg/kg 0.5h infusion, dog 288, 3 hours
# [16] = 1.7 mg/kg 0.5h infusion, dog 288, 4 hours
# [17] = 1.7 mg/kg 0.5h infusion, dog 288, -0.5 hours
# [18] = 1.7 mg/kg 0.5h infusion, dog 288, -0.75 hours
# [19] = 1.7 mg/kg 0.5h infusion, dog 288, -1 hours
# [20] = 1.7 mg/kg 0.5h infusion, dog 288, -[…]
# [21] = 1.7 mg/kg 0.5h infusion, dog 288, […]
# [22] = dog, 0.85 mg/kg 0.5h infusion, 0.5 h, 0.85 mg/kg
# [23] = dog, 0.85 mg/kg 0.5h infusion, 0.75 h, 0.85 mg/kg
structure (smiles),measurement,setting,value
CN(CCO)CCC(CSc1ccccc1)Nc1ccc(S(=O)(=O)NC(=O)c2ccc(N3CCC(C(O)c4ccccc4-c4ccc(Cl)cc4)CC3)cc2)cc1S(=O)(=O)C(F)(F)F (stereo not drawn) [AZD4320],QRS amplitude (% baseline),[1],92 % baseline
same,Systolic blood pressure (mmHg),[1],150 mmHg
same,ECG PR interval,[2],89 ms
same,ECG QRS duration,[2],43 ms
same,Left ventricular -dP/dt (mmHg/s),[2],-2331 mmHg/s
same,QRS amplitude (% baseline),[2],59 % baseline
same,Systolic blood pressure (mmHg),[2],150 mmHg
same,ECG PR interval,[3],92 ms
same,ECG QRS duration,[3],43 ms
same,Left ventricular -dP/dt (mmHg/s),[3],-1374 mmHg/s
same,QRS amplitude (% baseline),[3],4.62 % baseline
same,Systolic blood pressure (mmHg),[3],100 mmHg
same,ECG PR interval,[4],79 ms
same,ECG QRS duration,[4],43 ms
same,Left ventricular -dP/dt (mmHg/s),[4],-1040 mmHg/s
same,QRS amplitude (% baseline),[4],5 % baseline
same,Systolic blood pressure (mmHg),[4],70 mmHg
same,ECG PR interval,[5],97 ms
same,ECG QRS duration,[5],43 ms
same,Left ventricular -dP/dt (mmHg/s),[5],-2267 mmHg/s
same,QRS amplitude (% baseline),[5],101 % baseline
same,Systolic blood pressure (mmHg),[5],138 mmHg
same,ECG PR interval,[6],96 ms
same,ECG QRS duration,[6],43 ms
same,Left ventricular -dP/dt (mmHg/s),[6],-2278 mmHg/s
same,QRS amplitude (% baseline),[6],101 % baseline
same,Systolic blood pressure (mmHg),[6],133 mmHg
same,ECG PR interval,[7],94 ms
same,ECG QRS duration,[7],43 ms
same,Left ventricular -dP/dt (mmHg/s),[7],-2288 mmHg/s
same,QRS amplitude (% baseline),[7],100 % baseline
same,Systolic blood pressure (mmHg),[7],132 mmHg
same,ECG PR interval,[8],90 ms
same,ECG QRS duration,[8],43 ms
same,Left ventricular -dP/dt (mmHg/s),[8],-2309 mmHg/s
same,QRS amplitude (% baseline),[8],99 % baseline
same,Systolic blood pressure (mmHg),[8],145 mmHg
same,ECG PR interval,[9],82 ms
same,ECG QRS duration,[9],42 ms
same,Left ventricular -dP/dt (mmHg/s),[9],-1583 mmHg/s
same,QRS amplitude (% baseline),[9],8 % baseline
same,Systolic blood pressure (mmHg),[9],122 mmHg
same,ECG PR interval,[10],87 ms
same,ECG QRS duration,[10],41 ms
same,Left ventricular -dP/dt (mmHg/s),[10],-2656 mmHg/s
same,QRS amplitude (% baseline),[10],100 % baseline
same,Systolic blood pressure (mmHg),[10],140 mmHg
same,ECG PR interval,[11],88 ms
same,ECG QRS duration,[11],42 ms
same,Left ventricular -dP/dt (mmHg/s),[11],-2903 mmHg/s
same,QRS amplitude (% baseline),[11],80 % baseline
same,Systolic blood pressure (mmHg),[11],141 mmHg
same,ECG PR interval,[12],89 ms
same,ECG QRS duration,[12],43 ms
same,Left ventricular -dP/dt (mmHg/s),[12],-2836 mmHg/s
same,QRS amplitude (% baseline),[12],97 % baseline
same,Systolic blood pressure (mmHg),[12],146 mmHg
same,ECG PR interval,[13],81 ms
same,ECG QRS duration,[13],41 ms
same,Left ventricular -dP/dt (mmHg/s),[13],-2701 mmHg/s
same,QRS amplitude (% baseline),[13],94 % baseline
same,Systolic blood pressure (mmHg),[13],145 mmHg
same,ECG PR interval,[14],76 ms
same,ECG QRS duration,[14],39 ms
same,Left ventricular -dP/dt (mmHg/s),[14],-2328 mmHg/s
same,QRS amplitude (% baseline),[14],32 % baseline
same,Systolic blood pressure (mmHg),[14],128 mmHg
same,ECG PR interval,[15],95 ms
same,ECG QRS duration,[15],33 ms
same,Left ventricular -dP/dt (mmHg/s),[15],-1423 mmHg/s
same,QRS amplitude (% baseline),[15],9 % baseline
same,Systolic blood pressure (mmHg),[15],71 mmHg
same,ECG PR interval,[16],83 ms
same,ECG QRS duration,[16],35 ms
same,Left ventricular -dP/dt (mmHg/s),[16],-1372 mmHg/s
same,QRS amplitude (% baseline),[16],4.4 % baseline
same,Systolic blood pressure (mmHg),[16],63 mmHg
same,ECG PR interval,[17],83 ms
same,ECG QRS duration,[17],42 ms
same,Left ventricular -dP/dt (mmHg/s),[17],-2638 mmHg/s
same,QRS amplitude (% baseline),[17],99 % baseline
same,Systolic blood pressure (mmHg),[17],149 mmHg
same,ECG PR interval,[18],88 ms
same,ECG QRS duration,[18],42 ms
same,Left ventricular -dP/dt (mmHg/s),[18],-2682 mmHg/s
same,QRS amplitude (% baseline),[18],100 % baseline
same,Systolic blood pressure (mmHg),[18],138 mmHg
same,ECG PR interval,[19],89 ms
same,ECG QRS duration,[19],41 ms
same,Left ventricular -dP/dt (mmHg/s),[19],-2727 mmHg/s
same,QRS amplitude (% baseline),[19],99 % baseline
same,Systolic blood pressure (mmHg),[19],138 mmHg
same,ECG PR interval,[20],87 ms
same,ECG QRS duration,[20],41 ms
same,Left ventricular -dP/dt (mmHg/s),[20],-2575 mmHg/s
same,QRS amplitude (% baseline),[20],102 % baseline
same,Systolic blood pressure (mmHg),[20],135 mmHg
same,ECG PR interval,[21],80 ms
same,ECG QRS duration,[21],38 ms
same,Left ventricular -dP/dt (mmHg/s),[21],-1456 mmHg/s
same,QRS amplitude (% baseline),[21],16 % baseline
same,Systolic blood pressure (mmHg),[21],77 mmHg
same,ECG PR interval,[22],80 ms and 88 ms
same,Left ventricular -dP/dt (mmHg/s),[22],5112 mmHg/s
same,QRS amplitude (% baseline),[22],104 % baseline
same,Systolic blood pressure (mmHg),[22],169 mmHg and 176 mmHg
same,ECG PR interval,[23],80 ms and 82 ms
same,ECG QRS duration,[23],36 ms
